# Values quoted from earlier work, collected in paper PMC9931008 (Journal of Food and Drug Analysis, 2022).
# Conditions: humans; cited from earlier work
structure (smiles),measurement,value
"COC(=O)C1=C(C)NC(C)=C(C(=O)OC)C1c1ccccc1[N+](=O)[O-] [Nifedipine, nifedipine]",absolute bioavailability,40–50%
same,absorption from the gastrointestinal tract,~100%
same,intestinal elimination share of the first-pass metabolism,36–52%
